Measurements: patent US20190100594A1
Changes are numbered by the printed parent chain. Results are given in words; binding and its absence hold for the method and conditions named. Binding calls can cover weak binding; strength is not graded here.

B1: hzC06v3.1 (VHH)
VHH: EVQLLESGGGEVQPGGSLRLSCAASGSVFSIDAMGWYRLAPGQQRELVAVLSGISSAKYAESVKGRFTISRDNAKNTLYLQMSSLRAEDTAVYYCYADVSTGWGRDAHGYWGQGTLVTV
B2: hzC06v3.2 (VHH)
VHH: B1 VHH with L39Q, Q43K, E61D, R71G
B3: hzC06v3.3 (VHH)
VHH: B1 VHH with L39Q, Q43K, N73S, T77A, L78V, S83D, S84G, R86K, A87P
B4: hzC06v3.4 (VHH)
VHH: B1 VHH with L39Q, Q43K, L78V
B5: hzC06v3.5 (VHH)
VHH: B1 VHH with L39Q, Q43K, D72A, N73S, K75P
B6: hzC06v3.6 (VHH)
VHH: B1 VHH with L39Q, Q43K, D72A, N73S, K75P, L78V
B7: hzC06v3.7 (VHH)
VHH: B1 VHH with L39Q, Q43K, E61A, V63A, K64P, N73A, A74V, L78V
B8: hzC06v3.8 (VHH)
VHH: B1 VHH with L39Q, Q43K, E61A, V63A, K64P, N73A, A74V, K75E, L78V
B9: hzC06v3.9 (VHH)
VHH: B1 VHH with L39Q, Q43K, E61A, V63A, K64P, L78V
B10: hzC06v3.10 (VHH)
VHH: B1 VHH with L39Q, Q43K, E61D, S62A, D72A, N73S, K75P, L78V
B11: hzC06v3.11 (VHH)
VHH: B1 VHH with L39Q, Q43K, E61D, S62A, K64E, D72A, N73S, K75P, L78V
B12: hzC06v3.12 (VHH)
VHH: B1 VHH with L39Q, Q43K, E61A, V63A, K64P, D72A, N73S, K75P, L78V
B13: hzCC04v5 (VHH)
VHH: EVQLLESGGGEVQPGGSLRLSCAASGFTFSTHGMDWFRQAPGKDLEWVSAIQSGGSWTSYASSVKGRFTISRDNAKNTLYLQMSSLRAEDTAVYWCQNRVTRGQGTLVTV
B14: hzCC04v1.2.1 (VHH)
VHH: B13 VHH with Q52N, S53Q, W95Y
B15: hzCC04v5.1 (VHH)
VHH: B13 VHH with Q82E, S84N, S85N, R87K, A88P
B16: hzCC04v5.2 (VHH)
VHH: B13 VHH with S84N, S85N
B17: hzCC04v5.3 (VHH)
VHH: B13 VHH with Q82E
B18: hzCC04v5.4 (VHH)
VHH: B13 VHH with A88P
B19: hzCC04v5.5 (VHH)
VHH: B13 VHH with S84Q, S85Q
B20: hzCC04v5.6 (VHH)
VHH: B13 VHH with S84Q, S85N
B21: hzCC04v5.7 (VHH)
VHH: B13 VHH with S84D, S85N
B22: hzCC04v5.8 (VHH)
VHH: B13 VHH with S84N, S85D
B23: hzCC04v5.9 (VHH)
VHH: B13 VHH with S84D, S85D
B24: hzCC04v5.10 (VHH)
VHH: B13 VHH with S84Q, S85D
B25: hzCC04v5.11 (VHH)
VHH: B13 VHH with S84N, S85Q
B26: hzCC04v5.12 (VHH)
VHH: B13 VHH with S85N
B27: hzC06v1.1 (VHH)
VHH: B1 VHH with L39Q, Q43K, Q44G, R45L, A49S, V50A, K58T
B28: hzC06v1.2 (VHH)
VHH: B1 VHH with L39Q, Q43K, Q44G, A49S, V50A, K58T
B29: hzC06v1.3 (VHH)
VHH: B1 VHH with L39Q, Q43K, A49S, V50A, K58T
B30: hzC06v1.4 (VHH)
VHH: B1 VHH with L39Q, A49S, V50A, K58T
B31: hzC06v2.1 (VHH)
VHH: B1 VHH with L39Q, Q43K, Q44G, R45L, K58T
B32: hzC06v2.2 (VHH)
VHH: B1 VHH with L39Q, Q43K, Q44G, K58T
B33: hzC06v2.3 (VHH)
VHH: B1 VHH with L39Q, Q43K, K58T
B34: hzC06v2.4 (VHH)
VHH: B1 VHH with L39Q, K58T
B35: hzC06v3 (VHH)
VHH: B1 VHH with L39Q, Q43K

Molecular target: cyno GITR-CHO (cynomolgus monkey)
Test: flow cytometry on cyno GITR-CHO cells

Binder | binding
B1 | binds
B2 | binds
B3 | binds
B4 | binds
B5 | binds
B6 | binds
B7 | binds
B8 | binds
B9 | binds
B10 | binds
B11 | binds
B12 | binds
B13 | binds
B14 | binds
B15 | binds
B16 | binds
B17 | binds
B18 | binds

Binder | binding
B19 | binds
B20 | binds
B21 | binds
B22 | binds
B23 | binds
B24 | binds
B25 | binds
B26 | binds
B27 | binds
B28 | binds
B29 | binds
B30 | binds
B31 | binds
B32 | binds
B33 | binds
B34 | binds
B35 | binds
